Some of the results follow. Repeats are few or missing, and single values can be far off.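 The apoptosis fraction was the count of cleaved-PARP antibody-stained nuclei relative to all DNA-stained nuclei, imaged in 1,536-well plates. Screening doses were set so most cells survived, and baseline and induced cleaved-PARP levels vary greatly across cell lines.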

This assay has as its system UACC257. In words: cleaved PARP positive nuclei fraction relative to DMSO control; melanoma cells; higher = more apoptosis. To be noted: library dose: low library concentration; 72 h.
Regarding `O=c1[nH]nc(Sc2ncc([N+](=O)[O-])s2)n1-c1ccc2c(c1)OCCO2` + COc1ccc(COc2ccc(Cc3cnc(N)nc3N)cc2OC)cc1 [GW2580] (first compound 0.2 µM, partner dose 1 µM), the “cleaved PARP positive nuclei fraction” value is 126%.
Turning to `COc1cc([C@@H]2c3cc4c(cc3[C@@H](O[C@@H]3O[C@@H]5CO[C@@H](C)O[C@H]5[C@H](O)[C@H]3O)[C@H]3COC(=O)[C@H]23)OCO4)cc(OC)c1O` [etoposide] + O=S(=O)(c1ccccc1)N(CC(F)(F)F)c1ccc(C(O)(C(F)(F)F)C(F)(F)F)cc1 [T0901317] (first compound 0.02 µM, partner dose 1.4 µM), the “cleaved PARP positive nuclei fraction” value came out at 79.1%.
Regarding `O=c1[nH]nc(Sc2ncc([N+](=O)[O-])s2)n1-c1ccc2c(c1)OCCO2` + O=S(=O)(c1ccccc1)N(CC(F)(F)F)c1ccc(C(O)(C(F)(F)F)C(F)(F)F)cc1 [T0901317] (first compound 0.2 µM, partner dose 1.4 µM), the “cleaved PARP positive nuclei fraction” value came out at 92.6%.
In the case of `Cc1cc(Nc2cc(N3CCN(C)CC3)nc(Sc3ccc(NC(=O)C4CC4)cc3)n2)n[nH]1` [Tozasertib] + Cn1cncc1[C@@](N)(c1ccc(Cl)cc1)c1ccc2c(c1)c(-c1cccc(Cl)c1)cc(=O)n2C [tipifarnib] (first compound 0.006 µM, partner dose 0.01 µM), the “cleaved PARP positive nuclei fraction” value is 66.4%.
On to `CC[C@]1(O)C[C@H]2CN(CCc3c([nH]c4ccccc34)[C@@](C(=O)OC)(c3cc4c(cc3OC)N(C=O)[C@H]3[C@@](O)(C(=O)OC)[C@H](OC(C)=O)[C@]5(CC)C=CCN6CC[C@]43[C@@H]65)C2)C1` [vincristine] + c1cc(-c2cnn3cc(-c4ccc(OCCN5CCCCC5)cc4)cnc23)ccn1 [Dorsomorphin] (first compound 0.0001 µM, partner dose 0.4 µM), for which the “cleaved PARP positive nuclei fraction” value was 1210%.
In the case of `Cc1ccc(Nc2nccc(N(C)c3ccc4c(C)n(C)nc4c3)n2)cc1S(N)(=O)=O` [Pazopanib] + CN(NC(=O)CC(=O)NN(C)C(=S)c1ccccc1)C(=S)c1ccccc1 [STA4783] (first compound 0.4 µM, partner dose 0.006 µM), the “cleaved PARP positive nuclei fraction” value turned out to be 41.1%.
As for `Cc1cn(-c2cc(NC(=O)c3ccc(C)c(Nc4nccc(-c5cccnc5)n4)c3)cc(C(F)(F)F)c2)cn1` [nilotinib] + COc1ccc(COc2ccc(Cc3cnc(N)nc3N)cc2OC)cc1 [GW2580] (first compound 0.2 µM, partner dose 1 µM), the “cleaved PARP positive nuclei fraction” value was determined as 361%.
The same measure for `COc1cc([C@@H]2c3cc4c(cc3[C@@H](O[C@@H]3O[C@@H]5CO[C@@H](C)O[C@H]5[C@H](O)[C@H]3O)[C@H]3COC(=O)[C@H]23)OCO4)cc(OC)c1O` [etoposide] + C[C@@H]1CCN(C(=O)CC#N)C[C@@H]1N(C)c1ncnc2[nH]ccc12 [CP690550] (first compound 0.02 µM, partner dose 1 µM): 108%.
The same measure for `Cc1cn(-c2cc(NC(=O)c3ccc(C)c(Nc4nccc(-c5cccnc5)n4)c3)cc(C(F)(F)F)c2)cn1` [nilotinib] + Cn1cc(/C=C2\C(=O)Nc3cccnc32)c2ccccc21 [GW441756] (first compound 0.2 µM, partner dose 0.4 µM): 129%.
For the compound `Cc1cn(-c2cc(NC(=O)c3ccc(C)c(Nc4nccc(-c5cccnc5)n4)c3)cc(C(F)(F)F)c2)cn1` [nilotinib] + O=c1cc(-c2cccc3c2Sc2ccccc2S3)oc(N2CCOCC2)c1 [KU55933] (first compound 0.2 µM, partner dose 1 µM), the “cleaved PARP positive nuclei fraction” value came to 141%.
Consider `CC[C@]1(O)C[C@H]2CN(CCc3c([nH]c4ccccc34)[C@@](C(=O)OC)(c3cc4c(cc3OC)N(C=O)[C@H]3[C@@](O)(C(=O)OC)[C@H](OC(C)=O)[C@]5(CC)C=CCN6CC[C@]43[C@@H]65)C2)C1` [vincristine] + NC(=O)Nc1cc(-c2cccc(F)c2)sc1C(=O)N[C@H]1CCCNC1 [AZD7762] (first compound 0.0001 µM, partner dose 0.02 µM), for which the “cleaved PARP positive nuclei fraction” value turned out to be 290%.
As for `CCCCCCCCCCCCCCCCCCOP(=O)([O-])OC1CC[N+](C)(C)CC1` [Perifosine] + COc1ccc2c(c1)CCC1C2CCC2(C)C(NCCCCCCN3C(=O)C=CC3=O)CCC12 [U73122] (first compound 0.4 µM, partner dose 0.4 µM), the “cleaved PARP positive nuclei fraction” value came out at 317%.

For the origin of these results see the supplement of paper PMC4604168 (melanoma cell lines).
